This note sets out measurements from PMC7862700.

Protein sequences, listed by entry. Tags and fused reporters are not part of them. Lines headed by an entry give the natural chain unless they say otherwise; changes in a name come on top.
UniProt P32519: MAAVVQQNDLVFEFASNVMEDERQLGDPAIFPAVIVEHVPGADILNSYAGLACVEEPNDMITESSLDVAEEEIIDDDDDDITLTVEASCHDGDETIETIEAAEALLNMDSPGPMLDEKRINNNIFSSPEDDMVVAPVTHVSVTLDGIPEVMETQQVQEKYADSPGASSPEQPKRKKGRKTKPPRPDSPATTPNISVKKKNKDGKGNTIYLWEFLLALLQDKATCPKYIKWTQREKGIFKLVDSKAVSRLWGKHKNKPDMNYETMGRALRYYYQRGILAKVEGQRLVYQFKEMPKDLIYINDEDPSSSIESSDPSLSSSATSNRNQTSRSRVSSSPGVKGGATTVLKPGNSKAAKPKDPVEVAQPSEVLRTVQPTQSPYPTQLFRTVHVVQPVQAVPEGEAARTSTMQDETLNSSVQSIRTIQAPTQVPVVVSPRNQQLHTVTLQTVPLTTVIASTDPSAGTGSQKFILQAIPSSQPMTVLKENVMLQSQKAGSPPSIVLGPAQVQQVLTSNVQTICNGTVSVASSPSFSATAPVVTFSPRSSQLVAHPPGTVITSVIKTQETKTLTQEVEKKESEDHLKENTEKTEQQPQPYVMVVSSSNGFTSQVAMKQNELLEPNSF
UniProt P50549: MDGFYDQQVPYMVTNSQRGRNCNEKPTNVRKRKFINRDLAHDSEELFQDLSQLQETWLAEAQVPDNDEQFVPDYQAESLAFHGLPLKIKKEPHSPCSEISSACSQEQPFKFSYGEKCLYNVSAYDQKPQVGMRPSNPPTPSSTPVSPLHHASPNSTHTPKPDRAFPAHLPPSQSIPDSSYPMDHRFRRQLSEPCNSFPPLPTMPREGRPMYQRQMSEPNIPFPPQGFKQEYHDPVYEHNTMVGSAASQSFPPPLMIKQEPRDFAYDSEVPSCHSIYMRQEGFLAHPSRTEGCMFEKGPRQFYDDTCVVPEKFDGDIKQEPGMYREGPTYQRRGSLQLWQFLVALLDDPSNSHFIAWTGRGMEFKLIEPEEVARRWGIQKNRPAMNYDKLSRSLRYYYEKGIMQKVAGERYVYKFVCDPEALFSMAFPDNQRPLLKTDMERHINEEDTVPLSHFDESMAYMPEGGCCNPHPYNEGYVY

Common to all, as to test: DAPPL (digital affinity profiling via proximity ligation, sequencing)
Settings in all cases: 10 mM Tris-HCl pH 7.5, 50 mM NaCl, 1 mM DTT, 4% glycerol, room temperature, 30 min; GST-TFs on glutathione beads, 16-mer random dsDNA library, 0.1% …; high values mean tight binding; double strand, one strand shown; scale: fold enrichment (6-mer frequency, TF over GST control)

Assay [1] has as its target T1, ERG (UniProt P11308).
T1 sequence: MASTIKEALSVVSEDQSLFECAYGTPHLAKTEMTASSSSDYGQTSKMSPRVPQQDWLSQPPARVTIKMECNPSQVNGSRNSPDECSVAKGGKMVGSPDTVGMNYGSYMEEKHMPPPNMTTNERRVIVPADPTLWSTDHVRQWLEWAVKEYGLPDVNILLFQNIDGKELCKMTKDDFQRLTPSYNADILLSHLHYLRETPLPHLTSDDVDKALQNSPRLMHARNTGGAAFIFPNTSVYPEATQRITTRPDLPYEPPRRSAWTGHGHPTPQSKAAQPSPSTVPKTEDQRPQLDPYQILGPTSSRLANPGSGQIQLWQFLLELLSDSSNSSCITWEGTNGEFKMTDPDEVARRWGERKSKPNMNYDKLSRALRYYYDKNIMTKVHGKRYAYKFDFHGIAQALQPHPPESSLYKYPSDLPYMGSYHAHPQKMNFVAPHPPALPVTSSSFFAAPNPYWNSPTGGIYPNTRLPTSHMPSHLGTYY

The target in assay [2] is ELF1 (UniProt P32519).
Assay [3] concerns the target T2, ELK4 (UniProt P28324-2).
T2 sequence: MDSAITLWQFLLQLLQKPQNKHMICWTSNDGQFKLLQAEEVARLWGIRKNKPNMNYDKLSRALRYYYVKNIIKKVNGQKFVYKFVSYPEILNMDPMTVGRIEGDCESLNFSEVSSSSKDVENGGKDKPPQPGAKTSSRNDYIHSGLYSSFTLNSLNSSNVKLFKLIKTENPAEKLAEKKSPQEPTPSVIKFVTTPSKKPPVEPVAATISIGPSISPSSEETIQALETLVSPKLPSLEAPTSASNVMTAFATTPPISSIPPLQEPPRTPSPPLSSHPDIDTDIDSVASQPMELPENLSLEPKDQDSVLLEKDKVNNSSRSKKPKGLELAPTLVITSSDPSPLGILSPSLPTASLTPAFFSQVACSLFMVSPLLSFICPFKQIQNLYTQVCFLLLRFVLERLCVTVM

Assay [4] concerns the target T3, ETV4 (UniProt P43268).
T3 sequence: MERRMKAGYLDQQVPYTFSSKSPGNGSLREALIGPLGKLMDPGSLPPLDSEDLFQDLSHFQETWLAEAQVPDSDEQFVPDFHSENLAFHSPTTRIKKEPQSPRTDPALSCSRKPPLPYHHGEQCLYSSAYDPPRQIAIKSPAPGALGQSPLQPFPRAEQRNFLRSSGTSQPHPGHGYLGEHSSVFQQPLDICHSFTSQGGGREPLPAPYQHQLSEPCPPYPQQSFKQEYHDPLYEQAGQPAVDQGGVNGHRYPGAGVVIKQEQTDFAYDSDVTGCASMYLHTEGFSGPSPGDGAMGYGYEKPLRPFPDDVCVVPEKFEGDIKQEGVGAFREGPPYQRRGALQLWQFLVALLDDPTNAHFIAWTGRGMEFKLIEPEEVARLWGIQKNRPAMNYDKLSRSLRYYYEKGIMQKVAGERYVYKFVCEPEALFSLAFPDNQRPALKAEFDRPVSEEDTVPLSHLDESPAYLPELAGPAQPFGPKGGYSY

Assay [5] has as its target ETV1 (UniProt P50549).
In assay [6] the target is T4, ERF (UniProt P50548).
T4 sequence: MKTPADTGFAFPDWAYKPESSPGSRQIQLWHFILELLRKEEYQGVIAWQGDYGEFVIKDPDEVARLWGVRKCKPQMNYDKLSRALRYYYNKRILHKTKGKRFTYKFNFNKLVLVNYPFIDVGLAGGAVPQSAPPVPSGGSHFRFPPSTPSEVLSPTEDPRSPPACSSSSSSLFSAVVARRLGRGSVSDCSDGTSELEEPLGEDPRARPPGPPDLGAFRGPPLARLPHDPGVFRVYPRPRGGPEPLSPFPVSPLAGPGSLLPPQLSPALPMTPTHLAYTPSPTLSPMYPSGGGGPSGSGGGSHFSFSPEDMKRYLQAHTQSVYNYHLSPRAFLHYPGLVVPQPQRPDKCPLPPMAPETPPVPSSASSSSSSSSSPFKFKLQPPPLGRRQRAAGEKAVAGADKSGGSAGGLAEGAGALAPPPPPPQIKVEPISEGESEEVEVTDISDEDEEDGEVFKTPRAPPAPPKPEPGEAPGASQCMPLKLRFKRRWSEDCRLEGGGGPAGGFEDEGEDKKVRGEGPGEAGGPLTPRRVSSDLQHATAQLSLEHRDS

The list shows a part of the results, in another mix than the full data. For part of these data: At the low end of the ranking the order means little. Some of the results follow. For part of these data: The source does not settle which construct or isoform was used.

As to AGAGTG, the binding signal in assay [1] was determined as 0.658; in assay [2] it was 0.655; in assay [3], 0.659; in assay [4], 0.626; in assay [5], 0.572; in assay [6], 0.673.

With AGAGTA, the binding signal in assay [1] stood at 0.733; in assay [2], 0.75; in assay [3], 0.744; in assay [4] it was 0.7; in assay [5], 0.745; in assay [6] it was 0.766.

ACGAGA: the binding signal stood at 0.647 in assay [1]; 0.667 in assay [2]; 0.682 in assay [3]; 0.702 in assay [4]; 0.648 in assay [5]; 0.629 in assay [6].

In the case of AGTTAG, the binding signal worked out at 0.776 in assay [1]; 0.848 in assay [2]; 0.768 in assay [3]; 0.764 in assay [4]; 0.788 in assay [5]; 0.804 in assay [6].

For TCGTGC, the binding signal turned out to be 0.779 in assay [1]; 0.788 in assay [2]; 0.831 in assay [3]; 0.707 in assay [4]; 0.743 in assay [5]; 0.743 in assay [6].

Consider TAGGTG, for which the binding signal in assay [1] worked out at 0.888; in assay [2], 0.847; in assay [3], 0.89; in assay [4] it was 0.887; in assay [5], 0.939; in assay [6], 0.83.

Consider GCGCAT, for which the binding signal in assay [1] worked out at 0.891; in assay [2] it was 0.83; in assay [3] it was 0.959; in assay [4], 0.908; in assay [5] it was 0.837; in assay [6], 0.821.

Turning to AACCGT, the binding signal in assay [1] is 0.52; in assay [2], 0.511; in assay [3] it was 0.479; in assay [4], 0.517; in assay [5] it was 0.531; in assay [6], 0.577.

For CACAGG, the binding signal was 0.929 in assay [1]; 0.88 in assay [2]; 0.832 in assay [3]; 0.871 in assay [4]; 0.867 in assay [5]; 0.942 in assay [6].

Turning to CCGTCG, the binding signal in assay [1] worked out at 0.808; in assay [2], 0.781; in assay [3] it was 0.749; in assay [4], 0.706; in assay [5], 0.801; in assay [6], 0.801.

Consider GCAAGG, for which the binding signal in assay [1] worked out at 0.778; in assay [2], 0.775; in assay [3] it was 0.901; in assay [4] it was 0.778; in assay [5], 0.837; in assay [6] it was 0.777.

GGTAGC: the binding signal in assay [1] is 0.765; in assay [2], 0.816; in assay [3], 0.809; in assay [4] it was 0.895; in assay [5], 0.842; in assay [6], 0.822.

For AGACGA, the binding signal amounted to 0.659 in assay [1]; 0.694 in assay [2]; 0.697 in assay [3]; 0.69 in assay [4]; 0.759 in assay [5]; 0.703 in assay [6].

Turning to CGCAGA, the binding signal in assay [1] was found to be 0.796; in assay [2] it was 0.733; in assay [3] it was 0.803; in assay [4], 0.787; in assay [5], 0.784; in assay [6], 0.786.

For the sequence GAGTGA, the binding signal in assay [1] is 0.397; in assay [2] it was 0.41; in assay [3], 0.411; in assay [4], 0.377; in assay [5], 0.467; in assay [6], 0.398.

Take GGACAC: the binding signal in assay [1] was 0.782; in assay [2], 0.787; in assay [3], 0.749; in assay [4], 0.777; in assay [5], 0.807; in assay [6] it was 0.737.

Take GTGTGT: the binding signal in assay [1] was determined as 0.532; in assay [2] it was 0.501; in assay [3] it was 0.587; in assay [4], 0.492; in assay [5] it was 0.514; in assay [6] it was 0.482.

On to TGACGT, for which the binding signal in assay [1] worked out at 0.923; in assay [2], 0.916; in assay [3] it was 0.919; in assay [4], 0.888; in assay [5] it was 0.918; in assay [6], 0.904.

Turning to GGGCGG, the binding signal came to 0.466 in assay [1]; 0.43 in assay [2]; 0.475 in assay [3]; 0.411 in assay [4]; 0.402 in assay [5]; 0.434 in assay [6].

For ACGTGC, the binding signal in assay [1] was determined as 0.634; in assay [2] it was 0.671; in assay [3] it was 0.765; in assay [4], 0.728; in assay [5], 0.762; in assay [6], 0.769.

For the sequence GTGAGG, the binding signal in assay [1] was found to be 0.24; in assay [2], 0.257; in assay [3], 0.263; in assay [4], 0.254; in assay [5], 0.254; in assay [6], 0.254.

Regarding CGTTGA, the binding signal came to 0.881 in assay [1]; 0.807 in assay [2]; 0.93 in assay [3]; 0.834 in assay [4]; 0.752 in assay [5]; 0.853 in assay [6].

As to CATCGG, the binding signal was found to be 0.699 in assay [1]; 0.709 in assay [2]; 0.764 in assay [3]; 0.771 in assay [4]; 0.678 in assay [5]; 0.686 in assay [6].
